Among all 360,000 compounds or so, about 780 (0.22%) were called active. Inconclusive results, whose numbers are uncertain, are shown with a selection of clear calls. No stated cut-off is given here; in the data, active means inhibition above about 35% (passing the limit was not always enough); inconclusive means no clear call, values can overlap the other calls.
System: Botulinum neurotoxin type F light chain protease (Clostridium botulinum)
Test: BoNT/F light chain protease inhibitors, primary screen, biochemical, flow cytometry, MLPCN library (AID 588497); further: plate controls were buffer without enzyme for full effect and enzyme alone for no effect
Conditions: Multiplex microsphere protease cleavage assay, at 10 µM, stronger effect = higher value

| Compound | inhibition |
| --- | --- |
| COCc1nnc(NC(=O)c2cccc(NC(=O)c3ccccc3)c2)s1 | inactive: 3% |
| CC(=O)c1nn(-c2ccc(Cl)cc2)cc1C(=O)c1ccccc1 | inconclusive: -20.2% |
| CC(SCc1ccccc1)C(=O)Nc1ccccc1Br (stereo not given) | inconclusive: -4.2% |
| CC(C)(C)c1nn(-c2ccccc2)c2[nH]c(=O)c(C=O)cc12 | inconclusive: 4.4% |
| Cn1c(NC(=O)c2ccccc2)c(-c2ccccn2)c(=O)c2ccccc21 | inactive: 0.6% |
| Clc1ccc(Cc2ccc(SCc3ccccc3)nn2)c(Cl)c1 | active: 43.4% |
| COc1cc(O)c(C(CC(=O)N2CCOCC2)c2cc(OC)c(OC)c(OC)c2)c(OC)c1 (stereo not given) | inactive: 2.8% |
| CSc1nc(N)n(-c2cc(C(F)(F)F)ccn2)n1 | inconclusive: -2.5% |
| COc1cc(C(=S)N2CCOCC2)cc(OC)c1OC(=O)c1ccc(F)cc1 | inconclusive: 10.3% |
| Nc1nc(NC(=O)/C=C/c2ccc(F)cc2)nn1-c1ccccc1 | inconclusive: -9% |
| CN1/C(=C/c2cccc[n+]2CCO)Sc2ccccc21 | inactive: -23.8% |
| Cc1ccsc1/C=N/NC(=O)c1ccccn1 | inactive: 13.8% |
| N#CC(C#N)=C1C=C2C=C(N3CCCCCC3)CCC2CC1 (stereo not given) | active: 177% |
| Cc1nnc(NC(=O)CCC(=O)N2CCN(CCOc3cccc4ccccc34)CC2)s1 | inconclusive: 17.5% |
| Cc1ccc(C)c(C(=O)CSc2nc(N)cc(=O)[nH]2)c1 | inconclusive: -8% |
| COc1ccc(C(=O)CC(=O)C(=O)Nc2cc(OC)ccc2OC)cc1 | inconclusive: 3.9% |
| CCN(Cc1nc2ccccc2n1C)c1ccccc1 | inconclusive: -19.7% |
| CCc1nnc(NC(=O)CCC(=O)N2CCN(Cc3ccc(OC)c(F)c3)CC2)s1 | inactive: -17% |
| CC(OC(=O)CCN1C(=O)C2CC=CCC2C1=O)C(=O)Nc1ccc(F)cc1 (stereo not given) | inconclusive: -3.1% |
| O=C(CCCC(=O)NC1CCCCC1)Nc1ccc([N+](=O)[O-])cc1 | inconclusive: -17.1% |
| Cc1nc2ccc(NS(=O)(=O)c3c(C)c(C)cc(C)c3C)cc2s1 | inconclusive: -10.1% |
| CC1(O)CC(C)(C)C(C#N)C(=O)N1 (stereo not given) | inactive: 3.7% |
| O=C(Nc1nc(-c2ccccn2)cs1)c1ncc(Cl)c(Cl)c1Cl | inactive: -5% |
| Cc1csc(NC(=O)C(C)Oc2ccc(Cl)cc2C)n1 (stereo not given) | inactive: 1.6% |

| Compound | inhibition |
| --- | --- |
| CC1Cc2ccccc2N1C(=O)C1CCCN(S(=O)(=O)c2cccc3nsnc23)C1 (stereo not given) | inconclusive: -22.4% |
| CCOc1ccc(/C=N\NC(=O)c2c(C)nc3cc(C)ccn23)cc1 | inconclusive: 15.5% |
| CN1CCN(c2ccccc2NC(=O)Cc2ccc(Cl)cc2)CC1 | inactive: 1.5% |
| CC(=NNC(=S)N1CC2CCC(CC2)C1)c1cccc(C)n1 | active: 44.8% |
| CCCOC(=O)CCCN1C(=O)/C(=C2\SC(=S)N(CCCC(=O)OCCC)C2=O)SC1=S | inconclusive: -28.1% |
| CCOC(=O)c1ccc2c(c1)nc(SC/C(O)=C(\C#N)c1nc3ccccc3[nH]1)n2CC | inconclusive: -23.4% |
| CCCn1c(CN(Cc2ccccc2)Cc2ccccc2)nc2c1c(=O)n(C)c(=O)n2C | inactive: -1.1% |
| Cc1ccc2[nH]c(CNC(=O)C3CCCCC3)cc2c1 | inactive: -85.5% |
| CN(C)CC#CCn1c2ccccc2c2ccccc21 | inconclusive: -27.3% |
| CC(C)COc1ccc(C(=O)Nc2ncn[nH]2)cc1 | inconclusive: 19.7% |
| COc1ccc(C2(NC(C)=O)CCN(Cc3cccnc3)CC2)cc1 | inconclusive: 17.2% |
| Cc1ccccc1N=Nc1c(O)n(C)c2ccccc12 | inconclusive: -19% |
| COCCNC(=O)C1CCCN(c2ncccn2)C1 (stereo not given) | inactive: -0.2% |
| CCN(CC(=O)N1CCOCC1)S(=O)(=O)c1ccc2ccccc2c1 | inconclusive: 16.9% |
| Cc1ccc(CNC(=O)CC[C@H]2O[C@@H](n3cc(C)c(=O)[nH]c3=O)C[C@@H]2O)o1 | inactive: 6.9% |
| CCCS(=O)(=O)NC(=O)C1(C)CCN(C(=O)C2(c3ccc(Cl)cc3)CCCC2)C1 (stereo not given) | inactive: -2.9% |
| Cn1c(O)c(C=Nc2ccc(Cl)cc2)c(=O)n(C)c1=O | inconclusive: 15.8% |
| Nc1ccn(C2OC(CCl)C(O)C2O)c(=O)n1 (stereo not given) | inactive: -0.2% |
| CCCn1c(=O)c(Br)cn(-c2ccccc2C)c1=O | inconclusive: -10.4% |
| CCc1ccc(-n2nnnc2SCC(=O)Nc2ccc(NC(C)=O)cc2)cc1 | inconclusive: -23.2% |
| CN(C)C=Nc1ncc2c3ccccc3n(CCN(C)C)c2c1C#N | inactive: -4.4% |
| Cc1ccc(C)c(S(=O)(=O)N2CCN(C(=O)CN3C(=O)C4CC=CCC4C3=O)CC2)c1 (stereo not given) | inconclusive: 1.3% |
| COc1cc(C2C(C#N)=C(N)OC3=C2C(=O)CC(C)(C)C3)cc2c1OCO2 (stereo not given) | inactive: -2.8% |
| COc1ccc(OC)c(NC(=O)N2CCCC(C)C2)c1 (stereo not given) | inconclusive: 25.3% |

| Compound | inhibition |
| --- | --- |
| COCCCNC(=S)N/N=C/c1ccc(OC)cc1 | inconclusive: -20.8% |
| c1ccc(CCN=C2CCCc3c2[nH]c2ccccc32)cc1 | inconclusive: 1.5% |
| CCCCCCCc1ccc(-c2ccc(O)cc2)nc1 | inactive: 0.7% |
| O=C(c1ccc2c(c1)OCO2)N1CCC(Cc2ccccc2)CC1 | inconclusive: -51.3% |
| Cn1cccc/c1=N\c1cccc[n+]1C | inconclusive: -70.2% |
| C=CCn1c(CNS(=O)(=O)c2ccc(Br)cc2)nnc1SC | inconclusive: 0.8% |
| CCn1nccc1C(=O)Nc1cc(Cl)ccc1Cl | inactive: -3.7% |
| CN(C)CCN(CC1CCCN(Cc2ccccc2F)C1)C(=O)c1ccc(F)cc1 (stereo not given) | inconclusive: 14.3% |
| CS(=O)(=O)Nc1ccc(-c2nnc3n2CCCCC3)cc1 | inconclusive: 5.9% |
| COc1cc(Cl)c(C)cc1NC(=O)COC(=O)c1ccc(CN2CCCC2=O)cc1 | inconclusive: -5.2% |
| Cc1nnc(SCC(=O)NCc2ccco2)n1-c1ccccc1 | inactive: -1.2% |
| CCOc1ccc(NC(=O)CN(C)C(=O)/C=C/c2ccc(S(=O)(=O)N3CCCCCC3)cc2)cc1OCC | inconclusive: -3% |
| CC(C)(C)NCC(O)COc1cccc2c1C[C@H](O)[C@H](O)C2 (stereo not given in full) | inactive: 0.2% |
| CC(C)C1CC(=O)NC(SCC(=O)Nc2ccc(Br)cc2)=C1C#N (stereo not given) | inconclusive: 6.8% |
| Cc1ccc(CNC(=O)C(C)OC(=O)c2ccco2)cc1 (stereo not given) | inactive: 3.5% |
| O=C(Nc1ccc2c(c1)OCCO2)c1cccnc1Oc1ccc(Cl)cc1 | inconclusive: -10% |
| N[C@@H](Cc1ccccc1)c1nnc(SC/C=C/c2ccccc2)o1 | inconclusive: -10.5% |
| Cc1cccc(NC(=O)CCNC(=O)c2ccco2)c1 | inactive: 1.3% |
| CC(=O)c1ccc(NC(=O)CN2CCN(c3ccccc3)CC2)cc1 | inconclusive: 13.7% |
| CCCn1nnc(NC(=S)NC(=O)c2cccs2)n1 | inactive: 0.6% |
| COC(=O)c1ccccc1CSc1nsc(C)c1C#N | inconclusive: -1.5% |
| CSc1nn2c(C(F)(F)F)cc(C(F)(F)F)nc2c1C(=O)O | inconclusive: -100% |
| C/C(=N\O)C(=O)NCc1ccncc1 | inconclusive: 38.8% |
| c1ccc(CSC2=NNC(c3ccccn3)S2)cc1 (stereo not given) | inconclusive: -105% |

Compounds shown so far that contain a CF3 group (2):

| Compound | inhibition |
| --- | --- |
| CSc1nc(N)n(-c2cc(C(F)(F)F)ccn2)n1 | inconclusive: -2.5% |
| CSc1nn2c(C(F)(F)F)cc(C(F)(F)F)nc2c1C(=O)O | inconclusive: -100% |

Some of the entries above in a different format:
Compound	inhibition
Cc1cccc(NC(=O)CCNC(=O)c2ccco2)c1	inactive: 1.3%
CC(=O)c1ccc(NC(=O)CN2CCN(c3ccccc3)CC2)cc1	inconclusive: 13.7%
CCCn1nnc(NC(=S)NC(=O)c2cccs2)n1	inactive: 0.6%

More results follow:

| Compound | inhibition |
| --- | --- |
| Cc1ccc(S(=O)(=O)NCc2ccc(C(=O)N3CCN(c4ccccc4)CC3)cc2)cc1 | inactive: 1.3% |
| Cc1nn(Cc2ccccc2)c(Cl)c1C(=O)NCCc1ccccc1 | inactive: -3.5% |
| COC(=O)CNc1nc(Cl)nc(NC2CCCCC2)n1 | inconclusive: 12.4% |
| Cc1ccc(/C=N/n2c(-c3ccccn3)n[nH]c2=S)o1 | inconclusive: 1.8% |
| CC1(C)CC(NCc2cccc([N+](=O)[O-])c2)CC(C)(C)N1 | inconclusive: -32% |
| Cc1cc(N2C(=O)[C@@H]3[C@H](C2=O)[C@@H]2C[C@H]3C(Br)C2Br)no1 (stereo not given in full) | inconclusive: -4.9% |
| Cc1ccc(-c2cc(C(=O)Nc3ccncc3)c3ccccc3n2)cc1 | inconclusive: -4.5% |
| CC1CN(C(=O)c2cc3cc(F)ccc3[nH]2)CC(C)O1 (stereo not given) | inactive: 13.8% |
| COc1ccc(-c2nc(SCC(=O)N3CCOCC3)n[nH]2)cc1 | inconclusive: 7.2% |
| Cc1ccsc1C(=O)OCC(=O)Nc1cccc(S(=O)(=O)N2CCOCC2)c1 | inactive: -1.9% |
| CC1CN(CC(=O)Nc2ccc(Br)cn2)CC(C)O1 (stereo not given) | inconclusive: 4.6% |
| CC(=O)Nc1cccc(OCCCNS(=O)(=O)c2ccc(F)cc2)c1 | inconclusive: -15.1% |
| COc1ccccc1NC(=O)CN(c1ccccc1OC)S(=O)(=O)c1ccccc1 | inconclusive: 18.3% |
| CCCCCC(=O)N1CCCCC1 | inconclusive: -21.2% |
| CCOC(=O)C1CCN(c2ncnc3c2[nH]c2cccc(OC)c23)CC1 | inactive: -4.6% |
| CC(=O)c1ccc2c(c1)OCCOCCOc1ccccc1OCCOCCO2 | inconclusive: 40.3% |
| CCOc1ccc(C(=O)OCC(=O)NC2CCCC2)cc1OCC | inconclusive: -17.7% |
| N/C(=N\OS(=O)(=O)c1ccc2ccccc2c1)c1ccncc1 | inconclusive: -29.4% |
| Cc1cc(C)cc(N(CC(=O)NC(C)C)C(=O)CCC(=O)Nc2ccccn2)c1 | inconclusive: -0.4% |
| N#C/C(=C(/O)c1ccc(Cl)cc1)c1nc2ccccc2[nH]1 | inconclusive: -13.7% |
| COc1ccc(S(=O)(=O)Nc2ccc(Cc3ccncc3)cc2)cc1OC | inactive: 5.6% |
| CCCCSc1nnc(CCC)n1N | inconclusive: 4.4% |
| C[C@@H]1CN([C@@H](C)CO)S(=O)(=O)c2ccc(Br)cc2O[C@H]1CN(C)C(=O)Nc1ccc(C(F)(F)F)cc1 | inactive: -2.5% |
